Measured values: the supplement of paper PMC4635364
Where a name gives a salt, the structure may show the parent alone. The list shows a part of the results. Single values are uncertain here, since repeats match poorly.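 Human fetal ventral-midbrain neural progenitor line ReNCell VM, differentiated without mitogens. Images stained for doublecortin (early neurons) or tyrosine hydroxylase (dopaminergic neurons) were scored by blinded raters against untreated wells (0 = no change). Repeats and both raters were averaged, and compounds averaging 2 or higher were picked as hits for retesting.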

Each molecule was assayed on ReNCell VM (assay: neuronal differentiation score (DCX+ cell fraction vs untreated, manual image score) (score (-3 to 3)); higher = more neuronal differentiation). Details: library: LOPAC; 2 uM; 2 weeks.

Q: `Cc1cccc(C)c1OCC(C)N` (configuration not stated) [Mexiletene hydrochloride] was tested. Which neuronal differentiation score did it give?
A: inactive: 0

Q: With `Cc1nc2c([nH]1)c(=O)n(C)c(=O)n2Cc1ccco1` [Furafylline] as the molecule, how does the neuronal differentiation score read?
A: inactive: 0

Q: For `COC(=O)C(C)(N)Cc1ccc(O)cc1` (racemic) [alpha-Methyl-DL-tyrosine methyl ester hydrochloride], which neuronal differentiation score is on record?
A: inactive: 0

Q: For `C/C=C1\C(=O)C[C@H]2[C@@H]3CCC4=CC(=O)CC[C@]4(C)[C@H]3CC[C@]12C` [(Z)-Guggulsterone], which neuronal differentiation score is on record?
A: inactive: 0

Q: With `CC[n+]1c(/C=C/C=C2/N(C)c3ccccc3C2(C)C)sc2ccccc21` as the molecule, how does the neuronal differentiation score read?
A: inactive: 0

Q: For `Cc1cc(O)c2c(c1)C(=O)c1cc(O)cc(O)c1C2=O` [Emodin], which neuronal differentiation score is on record?
A: inactive: 0

Q: For `c1ccc2c(c1)CCC[C@H]2Nc1nc2ccccc2[nH]1` [NS8593 hydrochloride], which neuronal differentiation score is on record?
A: inactive: 0
